These are yes or no findings as the source states them, for the method shown.
Tests used:
[1] = biological target: SYCP1 CC D700R, K764E double mutant (human) (UniProt Q15431); assay: SEC-MALS; Superdex 200 HR 10/30 coupled to three-angle light scattering (mini-DAWN EOS) and refractive index detector, flow 0.2 ml/min; both purified
[2] = biological target: SYCP1 CC D700R, K764E double mutant (human) (UniProt Q15431); assay: SEC; Superdex 200 gel filtration, 20 mM Tris-HCl pH 8.0, 150 mM NaCl; wild type and double mutant compared; both purified

binding [1]: no binding
binding [2]: no binding
B1: SYCP1 CC D700R, K764E double mutant (domain or fragment, UniProt Q15431 662-801)
chain: DTYQKEIEDKKISEENLLEEVEKAKVIADEAVKLQKEIRKRCQHKIAEMVALMEKHKHQYDKIIEERDSELGLYKSKEQEQSSLRASLEIELSNLKAELLSVEKQLEIEREEKEKLKREAKENTATLKEKKDKKTQTFLL

From PMC4993509 (PLoS ONE, 2016)
